# The list shows a part of the results.
# B1: AT5G17240(42) (Arabidopsis thaliana), Q6NQJ8 (protein)
# chain: MDLEHQTMETFLRWAAEIGISDSIDSSRFRDSCLGHSLSVSDFPDAGGRGLGAARELKKGELVLKVPRKALMTTESIIAKDLKLSDAVNLHNSLSSTQILSVCLLYEMSKEKKSFWYPYLFHIPRDYDLLATFGNFEKQALQVEDAVWATEKATAKCQSEWKEAGSLMKELELKPKFRSFQAWLWASATISSRTLHVPWDSAGCLCPVGDLFNYDAPGDYSNTPQGPESANNVEEAGLVVETHSERLTDGGFEEDVNAYCLYARRNYQLGEQVLLCYGTYTNLELLEHYGFMLEENSNDKVFIPLETSLFSLASSWPKDSLYIHQDGKLSFALISTLRLWLIPQSQRDKSVMRLVYAGSQISVKNEILVMKWMSEKCGSVLRDLPTSVTEDTVLLHNIDKLQDPELRLEQKETEAFGSEVRAFLDANCLWDVTVLSGKPIEFSRKTSRMLSKWRWSVQWRLSYKRTLADCISYCNEKMNNLLGTQDRLRDL
# Legend:
# Test in all cases: glycan array binding signal (z-score within array); higher = stronger binding
# Details in all cases: glycan notation: IUPAC condensed, linker removed
# [1] = biological target: Gal3S(b1-3)[Fuc(a1-4)]GlcNAc
# Method in brief: (§1)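 Negative Z-scores can be read as non-binding. The Z-score is calculated within each array and then averaged across arrays of one protein sequence at different concentrations or buffers and across linkers. Arrays, 3228 in all, were curated from the Consortium for Functional Glycomics database and kept only where the protein sequence was available.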
# [2] = biological target: Gal3S(b1-4)Glc
# Method in brief: as §1
# [3] = biological target: Gal3S(b1-4)Glc6S
# Method in brief: as §1
# [4] = biological target: Gal3S(b1-4)GlcNAc
# Method in brief: as §1
# [5] = biological target: Gal3S(b1-4)[Fuc(a1-3)]Glc6S
# Method in brief: as §1
# [6] = biological target: Gal3S(b1-4)[Fuc(a1-3)]GlcNAc
# Method in brief: as §1
# [7] = biological target: Gal3S(b1-4)[Fuc(a1-3)]GlcNAc6S
# Method in brief: as §1
# [8] = biological target: Gal3S4S(b1-4)GlcNAc
# Method in brief: as §1
# [9] = biological target: Gal3S6S(b1-4)GlcNAc
# Method in brief: as §1
# [10] = biological target: Gal3S6S(b1-4)GlcNAc6S
# Method in brief: as §1
# [11] = biological target: Gal4S(b1-4)GlcNAc
# Method in brief: as §1
# [12] = biological target: Gal4S6S(b1-4)GlcNAc
# Method in brief: as §1
# [13] = biological target: Gal6P(b1-4)GlcNAc
# Method in brief: as §1
# [14] = biological target: Gal6S(b1-3)GlcNAc
# Method in brief: as §1
# [15] = biological target: Gal6S(b1-3)GlcNAc6S
# Method in brief: as §1
# [16] = biological target: Gal6S(b1-4)Glc
# Method in brief: as §1
# [17] = biological target: Gal6S(b1-4)Glc6S
# Method in brief: as §1
# [18] = biological target: Gal6S(b1-4)GlcNAc
# Method in brief: as §1
# [19] = biological target: Gal6S(b1-4)GlcNAc6S
# Method in brief: as §1
# [20] = biological target: GalNAc(a1-3)Gal
# Method in brief: as §1
# [21] = biological target: GalNAc(a1-3)GalNAc
# Method in brief: as §1
# [22] = biological target: GalNAc(a1-3)GalNAc(b1-3)Gal(a1-4)Gal(b1-4)Glc
# Method in brief: as §1
# [23] = biological target: GalNAc(a1-3)GalNAc(b1-3)Gal(a1-4)Gal(b1-4)GlcNAc
# Method in brief: as §1
# [24] = biological target: GalNAc(b1-3)Gal
# Method in brief: as §1
# [25] = biological target: GalNAc(b1-3)Gal(a1-4)Gal(b1-4)GlcNAc
# Method in brief: as §1
# [26] = biological target: GalNAc(b1-3)Gal(a1-4)Gal(b1-4)GlcNAc(b1-3)Gal(b1-4)Glc
# Method in brief: as §1
# [27] = biological target: GalNAc(b1-3)Gal(a1-6)Gal(b1-4)Glc
# Method in brief: as §1
# [28] = biological target: GalNAc(b1-3)GalNAc
# Method in brief: as §1
# [29] = biological target: GalNAc(b1-3)GlcNAc
# Method in brief: as §1
# [30] = biological target: GalNAc(b1-4)Gal(b1-4)Glc
# Method in brief: as §1
# [31] = biological target: GalNAc(b1-4)GlcNAc
# Method in brief: as §1
# [32] = biological target: GalNAc(b1-4)GlcNAc(b1-2)Man
# Method in brief: as §1
# [33] = biological target: GalNAc(b1-4)GlcNAc(b1-2)Man(a1-3)[GalNAc(b1-4)GlcNAc(b1-2)Man(a1-6)]Man(b1-4)GlcNAc(b1-4)GlcNAc
# Method in brief: as §1
# [34] = biological target: GalNAc(b1-4)GlcNAc(b1-3)GalNAc(b1-4)GlcNAc
# Method in brief: as §1
# [35] = biological target: GalNAc(b1-4)GlcNAc6S
# Method in brief: as §1
# [36] = biological target: GalNAc(b1-6)GalNAc
# Method in brief: as §1
# [37] = biological target: GalNAc3S(b1-4)GlcNAc
# Method in brief: as §1
binder,measurement,setting,value
B1,glycan array binding signal (z-score),[1],-0.057
same,glycan array binding signal (z-score),[2],0.617
same,glycan array binding signal (z-score),[3],0.74
same,glycan array binding signal (z-score),[4],-0.082
same,glycan array binding signal (z-score),[5],1.01
same,glycan array binding signal (z-score),[6],-0.017
same,glycan array binding signal (z-score),[7],0.301
same,glycan array binding signal (z-score),[8],-0.223
same,glycan array binding signal (z-score),[9],-0.428
same,glycan array binding signal (z-score),[10],1.61
same,glycan array binding signal (z-score),[11],1.13
same,glycan array binding signal (z-score),[12],-1.1
same,glycan array binding signal (z-score),[13],-0.361
same,glycan array binding signal (z-score),[14],0.316
same,glycan array binding signal (z-score),[15],0.422
same,glycan array binding signal (z-score),[16],-0.21
same,glycan array binding signal (z-score),[17],0.264
same,glycan array binding signal (z-score),[18],0.729
same,glycan array binding signal (z-score),[19],0.553
same,glycan array binding signal (z-score),[20],0.613
same,glycan array binding signal (z-score),[21],-0.053
same,glycan array binding signal (z-score),[22],-0.268
same,glycan array binding signal (z-score),[23],-0.446
same,glycan array binding signal (z-score),[24],-0.561
same,glycan array binding signal (z-score),[25],3.08
same,glycan array binding signal (z-score),[26],-0.155
same,glycan array binding signal (z-score),[27],-0.456
same,glycan array binding signal (z-score),[28],-0.226
same,glycan array binding signal (z-score),[29],0.534
same,glycan array binding signal (z-score),[30],-0.525
same,glycan array binding signal (z-score),[31],8.25
same,glycan array binding signal (z-score),[32],-0.175
same,glycan array binding signal (z-score),[33],0.425
same,glycan array binding signal (z-score),[34],0.07
same,glycan array binding signal (z-score),[35],-0.15
same,glycan array binding signal (z-score),[36],-0.229
same,glycan array binding signal (z-score),[37],0.134

# Three entries from above, with tabs:
binder	measurement	setting	value
B1	glycan array binding signal (z-score)	[11]	1.13
same	glycan array binding signal (z-score)	[12]	-1.1
same	glycan array binding signal (z-score)	[13]	-0.361
